# In the supplement of paper PMC10689618:
# Several values for one entry are separate records, joined by “and”; a condition that tells them apart may be missing. Equal entries are not always repeated. This is one part of the list. Single values are uncertain, as repeats are few or missing.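 Primary human fetal astrocytes engulfed labelled rat cortical synaptosomes, measured as a red/green ratio corrected for calcein live-cell signal and scaled to the plate median. Toxicity meant calcein falling over 30%; decreased phagocytosis meant below 70% of median above 5 µM.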
# System: Human fetal astrocytes
# Assay: loss of total cells relative to no-compound high-control median (toxicity); higher = more toxic (fewer cells)
# Conditions: 2.78 µM; 24 h
row,Compound,loss of total cells
1,C[C@@H]1C[C@H]2[C@@H]3C[C@H](F)C4=CC(=O)C=C[C@]4(C)[C@@]3(F)[C@@H](O)C[C@]2(C)[C@@]1(O)C(=O)CO,-19.2%
2,Nc1[nH]cnc2ncnc1-2,-17.3%
3,COc1ccc2c(c1)OC[C@@H](Cc1ccc(OC)c(OC)c1)[C@H]2O,2.5%
4,C[C@H]1[C@H](NC(=O)/C(=N\OC(C)(C)C(=O)O)c2csc(N)n2)C(=O)N1S(=O)(=O)O,13.3% and -0.7%
5,O=C1N=C(O)NC1(c1ccccc1)c1ccccc1,-1.5%
6,CC[C@H](C)C(=O)O[C@H]1C[C@H](O)C=C2C=C[C@H](C)[C@H](CC[C@@H](O)C[C@@H](O)CC(=O)O)[C@H]21,16.2%
7,CO/N=C(\C(=O)N[C@@H]1C(=O)N2C(C(=O)O)=C(COC(C)=O)CS[C@H]12)c1csc(N)n1,10.1%
8,CC1(C)[C@@H](O)CC[C@]2(C)[C@H]3C(=O)C=C4[C@@H]5C[C@@](C)(C(=O)O)CC[C@]5(C)CC[C@@]4(C)[C@]3(C)CC[C@@H]12,-9.7%
9,Nc1c2ccccc2nc2ccccc12,-11.9%
10,O=C(CCBr)N1CCN(C(=O)CCBr)CC1,-32.5%
11,CCC(CCC(C)C1CCC2C3CCC4CC(O)CCC4(C)C3CCC12C)C(C)C (stereo not drawn),-7.6%
12,OCC(S)CS (stereo not drawn),7.3%
13,O=C(O)CCCC[C@@H]1SC[C@@H]2NC(=O)N[C@@H]21,-38.9%
14,CC(=O)c1cc2ccccc2oc1=O,20.6%
15,CCCCCC(=O)O[C@]1(C(C)=O)CC[C@H]2[C@@H]3CCC4=CC(=O)CC[C@]4(C)[C@H]3CC[C@@]21C,-6.4%
16,CNCc1ccccc1,-1.8%
17,C[C@H](CCC(=O)O)[C@H]1CC[C@H]2[C@@H]3[C@@H](O)C[C@@H]4C[C@H](O)CC[C@]4(C)[C@H]3CC[C@]12C,-11.9%
18,CCCCCCCCCCCCC[N+](C)(C)Cc1ccccc1,-20.6%
19,CCOC(=O)[C@H](CCc1ccccc1)N[C@@H](C)C(=O)N1Cc2ccccc2C[C@H]1C(=O)O,-26.2%

row,Compound,loss of total cells
1,CN1CCC(=C2c3ccccc3Sc3ccccc32)CC1,22%
2,COc1cc2c(cc1OC)-c1cc3ccc(OC)c(OC)c3c[n+]1CC2,9.7% and -1.1%
3,CCOC(=O)CCC(=O)O[C@H]1[C@H](O[C@@H]2[C@@H](C)[C@H](O[C@H]3C[C@@](C)(OC)[C@@H](O)[C@H](C)O3)[C@@H](C)C(=O)O[C@H](CC)[C@@](C)(O)[C@H](O)[C@@H](C)C(=O)[C@H](C)C[C@@]2(C)O)O[C@H](C)C[C@@H]1N(C)C,-6.4%
4,Cc1cc(=O)n(-c2ccccc2)n1C,-9.5%
5,NNC(=O)c1ccncc1.Nc1ccc(C(=O)O)c(O)c1,14.1%
6,NC(=O)c1ccccc1O,-30.8%
7,O=C(N/N=C/c1ccc([N+](=O)[O-])o1)c1ccc(O)cc1,17.7%
8,Clc1ccccc1C(c1ccccc1)(c1ccccc1)n1ccnc1 [Clotrimazole],-7.1%
9,O=C1CN2Cc3c(ccc(Cl)c3Cl)N=C2N1,-22.2%
10,CC(C)CCCCC(=O)N[C@@H](CCN)C(=O)N[C@@H](CN[C@@H](CCN)C(=O)N[C@H]1CCNC(=O)[C@H]([C@@H](C)O)NC(=O)[C@H](CCN)NC(=O)[C@H](CCN)NC(=O)[C@H](CC(C)C)NC(=O)[C@@H](CC(C)C)NC(=O)[C@H](CCN)NC1=O)[C@@H](C)O.CCC(C)CCCCC(=O)N[C@@H](CCN)C(=O)N[C@@H](CN[C@@H](CCN)C(=O)N[C@H]1CCNC(=O)[C@H]([C@@H](C)O)NC(=O)[C@H](CCN)NC(=O)[C@H](CCN)NC(=O)[C@H](CC(C)C)NC(=O)[C@@H](CC(C)C)NC(=O)[C@H](CCN)NC1=O)[C@@H](C)O (stereo partly drawn),2.7%
11,CC(=O)O[C@H]1CC[C@]2(C)[C@H]3CC[C@@]4(C)[C@H](c5ccoc5)OC(=O)[C@H]5O[C@]54[C@]3(C)[C@H](OC(C)=O)C[C@H]2C1(C)C [3beta-ACETOXYDEOXODIHYDROGEDUNIN],13.3%
12,C#C[C@]1(OC(C)=O)CC[C@H]2[C@@H]3CCC4=CC(=O)CC[C@@H]4[C@H]3CC[C@@]21C,-25.4%
13,Cc1c(Nc2ncccc2C(=O)O)cccc1C(F)(F)F,-36.5%
14,CNCCc1ccccn1,-32.2%
15,COc1cc(C(=O)NCCCCCC(=O)O)cc(OC)c1OC,-41.3%
16,C[C@H]1O[C@@H](O[C@H]2[C@@H](O)C[C@H](O[C@H]3[C@@H](O)C[C@H](O[C@H]4CC[C@@]5(C)[C@H](CC[C@@H]6[C@@H]5CC[C@]5(C)[C@@H](C7=CC(=O)OC7)CC[C@]65O)C4)O[C@@H]3C)O[C@@H]2C)C[C@H](O)[C@@H]1O,30.2%
17,C=C1C[C@]23C[C@@]1(O)CC[C@H]2[C@@]12C=C[C@H](O)[C@@](C)(C(=O)O1)[C@H]2[C@@H]3C(=O)O,-4.7%
18,COc1cc(-c2cc(=O)c3c(O)c(OC)c(OC)c(OC)c3o2)cc(OC)c1OC,-6.9%

# Same assay, conditions: 5.56 µM; 24 h
row,Compound,loss of total cells
1,C[C@@H]1C[C@H]2[C@@H]3C[C@H](F)C4=CC(=O)C=C[C@]4(C)[C@@]3(F)[C@@H](O)C[C@]2(C)[C@@]1(O)C(=O)CO,0.9%
2,Nc1[nH]cnc2ncnc1-2,-0.7%
3,COc1ccc2c(c1)OC[C@@H](Cc1ccc(OC)c(OC)c1)[C@H]2O,5.8%
4,C[C@H]1[C@H](NC(=O)/C(=N\OC(C)(C)C(=O)O)c2csc(N)n2)C(=O)N1S(=O)(=O)O,-13% and -17.6%
5,O=C1N=C(O)NC1(c1ccccc1)c1ccccc1,-21.3%
6,CC[C@H](C)C(=O)O[C@H]1C[C@H](O)C=C2C=C[C@H](C)[C@H](CC[C@@H](O)C[C@@H](O)CC(=O)O)[C@H]21,17.1%
7,CO/N=C(\C(=O)N[C@@H]1C(=O)N2C(C(=O)O)=C(COC(C)=O)CS[C@H]12)c1csc(N)n1,-6.9%
8,CC1(C)[C@@H](O)CC[C@]2(C)[C@H]3C(=O)C=C4[C@@H]5C[C@@](C)(C(=O)O)CC[C@]5(C)CC[C@@]4(C)[C@]3(C)CC[C@@H]12,11.6%
9,Nc1c2ccccc2nc2ccccc12,-8.4%
10,O=C(CCBr)N1CCN(C(=O)CCBr)CC1,-4.3%
11,CCC(CCC(C)C1CCC2C3CCC4CC(O)CCC4(C)C3CCC12C)C(C)C (stereo not drawn),-0.7%
12,OCC(S)CS (stereo not drawn),-18.3%
13,O=C(O)CCCC[C@@H]1SC[C@@H]2NC(=O)N[C@@H]21,-7.5%
14,CC(=O)c1cc2ccccc2oc1=O,25.4%
15,CCCCCC(=O)O[C@]1(C(C)=O)CC[C@H]2[C@@H]3CCC4=CC(=O)CC[C@]4(C)[C@H]3CC[C@@]21C,0%
16,CNCc1ccccc1,0.7%
17,C[C@H](CCC(=O)O)[C@H]1CC[C@H]2[C@@H]3[C@@H](O)C[C@@H]4C[C@H](O)CC[C@]4(C)[C@H]3CC[C@]12C,-9.8%
18,CCCCCCCCCCCCC[N+](C)(C)Cc1ccccc1,18%

row,Compound,loss of total cells
1,CCOC(=O)[C@H](CCc1ccccc1)N[C@@H](C)C(=O)N1Cc2ccccc2C[C@H]1C(=O)O,1.2%
2,CN1CCC(=C2c3ccccc3Sc3ccccc32)CC1,13%
3,CCOC(=O)CCC(=O)O[C@H]1[C@H](O[C@@H]2[C@@H](C)[C@H](O[C@H]3C[C@@](C)(OC)[C@@H](O)[C@H](C)O3)[C@@H](C)C(=O)O[C@H](CC)[C@@](C)(O)[C@H](O)[C@@H](C)C(=O)[C@H](C)C[C@@]2(C)O)O[C@H](C)C[C@@H]1N(C)C,-2.1%
4,Cc1cc(=O)n(-c2ccccc2)n1C,2.7%
5,NNC(=O)c1ccncc1.Nc1ccc(C(=O)O)c(O)c1,13.8%
6,NC(=O)c1ccccc1O,-23.7%
7,O=C(N/N=C/c1ccc([N+](=O)[O-])o1)c1ccc(O)cc1,14.5%
8,Clc1ccccc1C(c1ccccc1)(c1ccccc1)n1ccnc1 [Clotrimazole],0.7%
9,O=C1CN2Cc3c(ccc(Cl)c3Cl)N=C2N1,4.3%
10,CC(C)CCCCC(=O)N[C@@H](CCN)C(=O)N[C@@H](CN[C@@H](CCN)C(=O)N[C@H]1CCNC(=O)[C@H]([C@@H](C)O)NC(=O)[C@H](CCN)NC(=O)[C@H](CCN)NC(=O)[C@H](CC(C)C)NC(=O)[C@@H](CC(C)C)NC(=O)[C@H](CCN)NC1=O)[C@@H](C)O.CCC(C)CCCCC(=O)N[C@@H](CCN)C(=O)N[C@@H](CN[C@@H](CCN)C(=O)N[C@H]1CCNC(=O)[C@H]([C@@H](C)O)NC(=O)[C@H](CCN)NC(=O)[C@H](CCN)NC(=O)[C@H](CC(C)C)NC(=O)[C@@H](CC(C)C)NC(=O)[C@H](CCN)NC1=O)[C@@H](C)O (stereo partly drawn),38.9%
11,CC(=O)O[C@H]1CC[C@]2(C)[C@H]3CC[C@@]4(C)[C@H](c5ccoc5)OC(=O)[C@H]5O[C@]54[C@]3(C)[C@H](OC(C)=O)C[C@H]2C1(C)C [3beta-ACETOXYDEOXODIHYDROGEDUNIN],0%
12,C#C[C@]1(OC(C)=O)CC[C@H]2[C@@H]3CCC4=CC(=O)CC[C@@H]4[C@H]3CC[C@@]21C,-2.1%
13,Cc1c(Nc2ncccc2C(=O)O)cccc1C(F)(F)F,3.7%
14,CNCCc1ccccn1,-2.1%
15,COc1cc(C(=O)NCCCCCC(=O)O)cc(OC)c1OC,8.7%
16,C[C@H]1O[C@@H](O[C@H]2[C@@H](O)C[C@H](O[C@H]3[C@@H](O)C[C@H](O[C@H]4CC[C@@]5(C)[C@H](CC[C@@H]6[C@@H]5CC[C@]5(C)[C@@H](C7=CC(=O)OC7)CC[C@]65O)C4)O[C@@H]3C)O[C@@H]2C)C[C@H](O)[C@@H]1O,9.1%
17,C=C1C[C@]23C[C@@]1(O)CC[C@H]2[C@@]12C=C[C@H](O)[C@@](C)(C(=O)O1)[C@H]2[C@@H]3C(=O)O,29%
18,COc1cc(-c2cc(=O)c3c(O)c(OC)c(OC)c(OC)c3o2)cc(OC)c1OC,11.7%
